# Data as given in publication PMC7862700.
# Protein sequences, listed by entry. Tags and fused reporters are not part of them. Lines headed by an entry give the natural chain unless they say otherwise; changes in a name come on top.
# UniProt Q9Y603: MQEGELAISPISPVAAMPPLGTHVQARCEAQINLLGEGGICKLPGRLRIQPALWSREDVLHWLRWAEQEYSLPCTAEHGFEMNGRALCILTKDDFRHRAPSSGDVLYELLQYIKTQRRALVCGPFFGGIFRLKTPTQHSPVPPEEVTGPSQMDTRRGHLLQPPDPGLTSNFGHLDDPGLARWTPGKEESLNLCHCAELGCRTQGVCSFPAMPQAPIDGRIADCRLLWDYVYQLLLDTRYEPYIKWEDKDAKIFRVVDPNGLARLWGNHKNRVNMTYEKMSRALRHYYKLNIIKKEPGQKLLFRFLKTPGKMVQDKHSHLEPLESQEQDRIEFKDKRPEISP
# UniProt P41212: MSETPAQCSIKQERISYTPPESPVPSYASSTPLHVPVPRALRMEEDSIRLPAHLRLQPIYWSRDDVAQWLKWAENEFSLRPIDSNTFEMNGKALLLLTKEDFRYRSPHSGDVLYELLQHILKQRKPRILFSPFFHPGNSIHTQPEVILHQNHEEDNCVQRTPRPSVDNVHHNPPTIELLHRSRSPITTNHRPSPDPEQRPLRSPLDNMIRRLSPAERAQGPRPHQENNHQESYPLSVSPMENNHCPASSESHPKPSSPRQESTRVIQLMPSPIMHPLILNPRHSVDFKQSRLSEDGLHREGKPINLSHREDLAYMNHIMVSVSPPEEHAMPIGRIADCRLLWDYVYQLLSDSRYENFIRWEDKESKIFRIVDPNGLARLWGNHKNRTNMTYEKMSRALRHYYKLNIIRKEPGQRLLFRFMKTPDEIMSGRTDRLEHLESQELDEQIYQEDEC
# The entries are a selection whose mix differs from that of the whole data set. At the low end of the ranking the order means little.
# Tests used:
# Assay in all cases: DAPPL (digital affinity profiling via proximity ligation, sequencing)
# Details in all cases: 10 mM Tris-HCl pH 7.5, 50 mM NaCl, 1 mM DTT, 4% glycerol, room temperature, 30 min; GST-TFs on glutathione beads, 16-mer random dsDNA library, 0.1% …; high values mean tight binding; double strand, one strand shown; scale: fold enrichment (6-mer frequency, TF over GST control)
# ELF3 = target: T1, ELF3 (UniProt P78545)
# T1 sequence: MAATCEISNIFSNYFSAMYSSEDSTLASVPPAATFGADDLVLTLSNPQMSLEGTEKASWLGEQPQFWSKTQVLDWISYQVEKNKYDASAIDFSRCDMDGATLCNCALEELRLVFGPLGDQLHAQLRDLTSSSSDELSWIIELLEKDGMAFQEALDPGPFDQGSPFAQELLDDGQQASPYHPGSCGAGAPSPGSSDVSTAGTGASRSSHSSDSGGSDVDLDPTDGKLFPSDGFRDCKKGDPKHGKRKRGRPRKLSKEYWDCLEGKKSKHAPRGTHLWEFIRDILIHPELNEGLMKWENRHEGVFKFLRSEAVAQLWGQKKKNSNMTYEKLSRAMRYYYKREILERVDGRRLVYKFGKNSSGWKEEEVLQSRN
# ETV7 = ETV7 (UniProt Q9Y603)
# ETV6 = ETV6 (UniProt P41212)
Sequence,binding signal (ELF3),binding signal (ETV7),binding signal (ETV6)
CGAAGG,0.803,0.912,0.956
AAGGGT,0.998,1.1,0.982
GGGATT,0.874,0.829,0.815
CGAGGT,0.901,1.02,0.938
GACTTA,0.912,0.942,0.876
TTGAGA,0.834,0.807,0.855
CAGATC,0.9,0.92,0.951
TGGTGG,0.922,1.09,0.912
GCCACC,0.912,0.933,0.889
ATCAAG,0.913,0.922,0.974
ACGCCA,0.841,0.858,0.834
CAGACT,1.04,0.913,0.995
TTAGCC,0.874,0.942,0.939
CATCGT,0.908,0.899,0.923
AGCGCT,0.973,0.978,0.972
ACGCGA,0.834,0.909,0.88
CATTGG,0.965,0.951,0.925
TGGTCG,0.924,0.935,0.858
TCATTG,0.874,0.897,0.959
CGAGAT,0.936,0.926,0.91
ACGCGC,0.927,0.931,0.979
AGCCCA,1.04,0.862,0.856
AGACTC,0.831,0.889,0.85

Sequence,binding signal (ELF3),binding signal (ETV7),binding signal (ETV6)
CGGGCT,0.959,0.994,0.99
CTGTGG,0.796,0.882,0.877
GCAAGC,0.917,0.843,0.918
CGCGCA,0.852,0.946,0.941
TGAATC,0.872,0.959,1.01
GTCACC,0.983,0.869,0.911
ACTAGG,0.991,0.986,0.962
GTCGAC,0.96,0.986,0.946
AGGCTA,0.881,0.946,0.9
ATCAGA,0.922,0.908,0.959
TCGAGG,0.825,0.823,0.843
GTAGAT,1.01,0.989,0.961
TGAACG,1.16,0.895,0.91
GAATTA,0.971,1.06,1.08
CGAGTA,0.9,0.862,0.83
GTTGGT,0.872,1.02,0.929
AAAGGC,0.875,1.03,0.992
TGAAGC,0.804,0.96,1.01
CAGAAG,0.72,0.788,0.721
GACATG,0.996,1.03,0.995
CAGTAT,1.1,0.933,0.903
CACGCA,1.04,0.983,0.998
CGGATC,0.943,0.946,0.954

Sequence,binding signal (ELF3),binding signal (ETV7),binding signal (ETV6)
GATTTG,0.884,1.15,1.09
ACAATG,1.17,–,1.06
TTTTCT,1.35,–,1.32
TGCAGC,0.958,–,0.968
GGTATG,0.948,–,0.887
CGAAGA,0.776,0.771,0.788
GATGGG,0.997,–,0.958
GTCACT,1.26,–,0.972
CCACGA,1,–,1.01
TCGTTA,0.87,–,0.946
GGAATG,0.954,0.839,0.828
GCCCAT,0.987,0.935,0.934
CAAAGA,0.916,0.936,0.957
CGTTGG,0.789,–,0.86
TGCCAT,1.08,1.09,1.1
GCTCCC,1.35,–,1.25
CGCGAA,0.897,–,0.952
TAAGAG,0.944,0.944,0.91
TGAAGG,0.994,0.934,0.94
GGCCTG,0.879,–,0.875
AACTAT,1.26,–,1.33
TTAGGC,0.989,–,0.887
CACATC,1.34,–,1.5

# Whole records from above.
# GATGGG is listed with binding signal (ELF3): 0.997; binding signal (ETV6): 0.958
# CACATC is listed with binding signal (ELF3): 1.34; binding signal (ETV6): 1.5
# CAAAGA is listed with binding signal (ELF3): 0.916; binding signal (ETV7): 0.936; binding signal (ETV6): 0.957

# Next part.

Sequence,binding signal (ELF3),binding signal (ETV7),binding signal (ETV6)
ACGACG,1.17,–,1.2
TATCAA,0.921,–,0.989
TTTAAG,1.28,–,1.26
GCTGTT,1.17,–,1.03
TAACGT,1.06,–,0.939
GCCCGG,0.894,–,0.88
GAATAG,0.976,0.997,0.983
GACTAC,1.2,–,1.11
AATCGT,0.832,0.828,0.909
ACGCTC,0.989,0.974,0.948
TGGGCG,0.818,0.988,0.905
CAGCGC,0.962,–,0.978
GGCAGC,0.785,0.999,0.917
GAAAGT,0.888,–,0.853
TAGGCC,0.996,–,0.907
CTCAGT,1.35,–,1.08
CTTAAA,1.2,–,1.26
GGTAAC,0.947,–,1.04
CGAAAT,0.957,–,0.98
TGAAGA,0.953,–,0.919
TCCTAG,1.2,–,1.26
